Source: EP0504914A2
These are yes or no findings as the source states them, for the method shown. Some binding calls cover weakened binding; strength is not graded here.

Amino acid sequences for entries named in this document (tags omitted). Residues count along the entry.
UniProt P15209, residues 32-821: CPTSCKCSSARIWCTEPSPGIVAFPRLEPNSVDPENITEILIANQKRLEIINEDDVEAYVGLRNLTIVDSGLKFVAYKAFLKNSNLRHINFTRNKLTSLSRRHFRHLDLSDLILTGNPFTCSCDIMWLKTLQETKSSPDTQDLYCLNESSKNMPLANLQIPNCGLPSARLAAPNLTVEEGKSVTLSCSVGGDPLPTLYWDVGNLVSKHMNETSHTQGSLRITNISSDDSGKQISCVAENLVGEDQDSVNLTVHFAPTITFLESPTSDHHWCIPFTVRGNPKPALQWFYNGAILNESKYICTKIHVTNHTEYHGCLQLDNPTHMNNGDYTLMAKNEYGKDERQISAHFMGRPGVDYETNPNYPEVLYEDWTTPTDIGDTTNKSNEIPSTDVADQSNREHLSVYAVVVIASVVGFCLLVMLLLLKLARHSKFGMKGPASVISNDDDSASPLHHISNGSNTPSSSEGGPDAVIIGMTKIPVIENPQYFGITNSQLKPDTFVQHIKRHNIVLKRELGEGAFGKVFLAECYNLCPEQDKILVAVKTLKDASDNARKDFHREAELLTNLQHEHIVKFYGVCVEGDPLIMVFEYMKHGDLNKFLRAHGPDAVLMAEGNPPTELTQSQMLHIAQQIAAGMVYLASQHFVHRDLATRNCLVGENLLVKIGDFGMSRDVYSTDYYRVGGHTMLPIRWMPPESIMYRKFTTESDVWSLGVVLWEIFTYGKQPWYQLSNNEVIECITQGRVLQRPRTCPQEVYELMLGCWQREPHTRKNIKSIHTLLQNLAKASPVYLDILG

Key:
[1] = molecular target: mouse trkB tyrosine protein kinase gp145^trkB (mouse) (UniProt P15209); assay: [125I]-NT-3 binding to cells
[2] = molecular target: mouse trkB tyrosine protein kinase gp145^trkB (mouse) (UniProt P15209); assay: [125I]-NT-3 (1 nM) binding to B35-41 and Z52-17 cells at 4°C

binding [1]: binds
binding [2]: binds
B1: human neurotrophin-3 (NT-3) (ligand, UniProt P20783 139-257, looked up)
chain: YAEHKSHRGEYSVCDSESLWVTDKSSAIDIRGHQVTVLGEIKTGNSPVKQYFYETRCKEARPVKNGCRGIDDKHWNSQCKTSQTYVRALTSENNKLVGWRWIRIDTSCVCALSRKIGRT
modifications: 125I (Bolton-Hunter) where used as tracer
